Record: PubChem BioAssay AID1259308 (NCATS, 2017)
This is a random part of about 59,000 reagents. Over the whole deposit, about 1,510 (2.6%) were called active. 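Calls use total luciferase alone and ignore viability, so some active siRNAs may act by altering cell number.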 The numbers tell different reagents against one gene apart. Further read-outs or replicates are left out here. No sequences are given here.

Test: 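Genes whose loss raises luciferase production in HEK293 cells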 (primary screen)
Cells: human HEK293 embryonic kidney cells stably expressing firefly luciferase (HEK-CMV-Luc2-Hygro)
Knock-down reagent: single siRNA against human genes, 0.8 pmol siRNA per well
Timing: 72 h
Measured: 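Reporter luminescence and viable-cell signal on separate replicate plates, given as percent of non-targeting control and median/MAD z-scores, plus per-cell luciferase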
Direction: total luciferase, z-score and total luciferase, % of control: higher = more reporter protein produced
Active means: 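An siRNA counts as active if its total luciferase robust z-score exceeds 3; genes with two or more such siRNAs out of three were retested with fresh siRNAs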
Meaning of the calls: active = raised luciferase; inactive = no rise

The opening 7 entries, ahead of the listing:
Gene,reagent,"total luciferase, z-score","total luciferase, % of control",activity call
STK17B (serine/threonine kinase 17b),1,-1.32,55.7,inactive
STK17B (serine/threonine kinase 17b),2,-0.329,75.3,inactive
STK17B (serine/threonine kinase 17b),3,0.996,102,inactive
DPF3 (double PHD fingers 3),1,-0.351,74.9,inactive
DPF3 (double PHD fingers 3),2,-0.471,72.5,inactive
DPF3 (double PHD fingers 3),3,-0.34,75.1,inactive
C22orf31 (chromosome 22 open reading frame 31),1,0.951,101,inactive

The listing, repeating the preview:
Gene,reagent,"total luciferase, z-score","total luciferase, % of control",activity call
STK17B (serine/threonine kinase 17b),1,-1.32,55.7,inactive
STK17B (serine/threonine kinase 17b),2,-0.329,75.3,inactive
STK17B (serine/threonine kinase 17b),3,0.996,102,inactive
DPF3 (double PHD fingers 3),1,-0.351,74.9,inactive
DPF3 (double PHD fingers 3),2,-0.471,72.5,inactive
DPF3 (double PHD fingers 3),3,-0.34,75.1,inactive
C22orf31 (chromosome 22 open reading frame 31),1,0.951,101,inactive
C22orf31 (chromosome 22 open reading frame 31),2,-0.104,79.8,inactive
C22orf31 (chromosome 22 open reading frame 31),3,1.68,115,inactive
ZHX3 (zinc fingers and homeoboxes 3),1,2.15,125,inactive
ZHX3 (zinc fingers and homeoboxes 3),2,1.51,112,inactive
ZHX3 (zinc fingers and homeoboxes 3),3,0.323,88.3,inactive
VWC2 (von Willebrand factor C domain containing 2),1,-0.904,63.9,inactive
VWC2 (von Willebrand factor C domain containing 2),2,0.104,83.9,inactive
VWC2 (von Willebrand factor C domain containing 2),3,0.784,97.5,inactive
WDR41 (WD repeat domain 41),1,0.414,90.1,inactive
WDR41 (WD repeat domain 41),2,-0.318,75.6,inactive
WDR41 (WD repeat domain 41),3,-0.507,71.8,inactive
IDH1 (isocitrate dehydrogenase (NADP(+)) 1),1,-1.19,58.2,inactive
IDH1 (isocitrate dehydrogenase (NADP(+)) 1),2,1.17,105,inactive
IDH1 (isocitrate dehydrogenase (NADP(+)) 1),3,0.315,88.2,inactive
MXD1 (MAX dimerization protein 1),1,0.412,90.1,inactive
MXD1 (MAX dimerization protein 1),2,-0.714,67.7,inactive
MXD1 (MAX dimerization protein 1),3,2.29,127,inactive
RTEL1 (regulator of telomere elongation helicase 1),1,-0.798,66,inactive
RTEL1 (regulator of telomere elongation helicase 1),2,1.76,117,inactive
RTEL1 (regulator of telomere elongation helicase 1),3,-0.00706,81.7,inactive
FAM215B (family with sequence similarity 215 member B),1,0.7,95.8,inactive
FAM215B (family with sequence similarity 215 member B),2,-1.87,44.6,inactive
FAM215B (family with sequence similarity 215 member B),3,-0.0529,80.8,inactive
TMEM11 (transmembrane protein 11),1,-1.77,46.7,inactive
TMEM11 (transmembrane protein 11),2,0.124,84.4,inactive
TMEM11 (transmembrane protein 11),3,0.958,101,inactive
GNL3 (G protein nucleolar 3),1,-1.15,59.1,inactive
GNL3 (G protein nucleolar 3),2,-0.122,79.5,inactive
GNL3 (G protein nucleolar 3),3,-1.55,51,inactive
KDELR2 (KDEL endoplasmic reticulum protein retention receptor 2),1,0.213,86.1,inactive
KDELR2 (KDEL endoplasmic reticulum protein retention receptor 2),2,6.53,212,active
KDELR2 (KDEL endoplasmic reticulum protein retention receptor 2),3,0.612,94.1,inactive
TRADD (TNFRSF1A associated via death domain),1,-1.36,54.8,inactive
TRADD (TNFRSF1A associated via death domain),2,-0.605,69.8,inactive
TRADD (TNFRSF1A associated via death domain),3,-0.667,68.6,inactive
MYH9 (myosin heavy chain 9),1,-2.16,38.9,inactive
MYH9 (myosin heavy chain 9),2,-0.379,74.3,inactive
MYH9 (myosin heavy chain 9),3,-0.201,77.9,inactive
SPDYA (speedy/RINGO cell cycle regulator family member A),1,-1.61,49.8,inactive
SPDYA (speedy/RINGO cell cycle regulator family member A),2,0.149,84.9,inactive
SPDYA (speedy/RINGO cell cycle regulator family member A),3,0.0682,83.2,inactive
"TFB1M (transcription factor B1, mitochondrial)",1,2.42,130,inactive
"TFB1M (transcription factor B1, mitochondrial)",2,-1.42,53.7,inactive
"TFB1M (transcription factor B1, mitochondrial)",3,-0.905,63.9,inactive
C1orf21 (chromosome 1 open reading frame 21),1,2.71,136,inactive
C1orf21 (chromosome 1 open reading frame 21),2,0.0236,82.4,inactive
C1orf21 (chromosome 1 open reading frame 21),3,0.843,98.6,inactive
PMS2P3,1,-0.922,63.6,inactive
PMS2P3,2,-0.707,67.8,inactive
PMS2P3,3,-1.78,46.5,inactive
